# Measured values published in article PMC7819943, “Rice protein-binding microarrays: a tool to detect cis-acting elements near promoter regions in rice”.
# By UniProt entry, the sequences of proteins in these tests, tags left out.
# UniProt Q0JBA9, entry or part of it: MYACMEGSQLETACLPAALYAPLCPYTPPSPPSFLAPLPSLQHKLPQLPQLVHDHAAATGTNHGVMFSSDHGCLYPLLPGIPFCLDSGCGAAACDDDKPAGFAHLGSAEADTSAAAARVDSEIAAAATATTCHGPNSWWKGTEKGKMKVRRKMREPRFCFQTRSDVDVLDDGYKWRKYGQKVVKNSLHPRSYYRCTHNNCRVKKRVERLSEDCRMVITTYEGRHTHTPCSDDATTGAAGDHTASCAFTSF
# The other results are listed elsewhere or left out.
# Biological target: OsWRKY34 (Oryza sativa, UniProt Q0JBA9 1-250)
# Assay: protein-binding microarray (RPBM); PBS, 2% BSA, 51.3 ng/ul salmon testes DNA, 50 uM zinc acetate, 200 nM TF, 25 C, 1 h; high values mean tight binding
# Settings: protein: recombinant; tags: N-terminal polyhistidine and DsRed monomer fusion (pET32a); label: CyDye5-dUTP incorporated in the synthesized complementary strand; 3' TTTTT single-stranded linker to array surface; dsDNA, one strand shown
# Summary of the method: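 Transcription factors, each fused N-terminally to a polyhistidine tag and DsRed, were expressed in E. coli BL21-CodonPlus and purified on Ni–NTA. A custom Agilent array was made double-stranded by primer extension with Cy5-dUTP and blocked with 2% BSA. It was incubated with 200 nM protein in PBS, 2% BSA, salmon testes DNA and 50 µM zinc acetate at 25 °C for 1 h, then washed. The binding signal is per-feature fluorescence intensity (arbitrary units) read on an Axon 4000B scanner.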
row,Sequence,binding signal
1,AGTCATGTACTAATAATTTTATCATCACACCTTTAGTACTCGGAGTCACCTAGTGCAG,9700 fluorescence intensity (a.u.)
2,ACGCGCGGGCGGGGCGGGTGACGTCGCTGTCCCTCCCGGGCGGAGTCACCTAGTGCAG,8400 fluorescence intensity (a.u.)
3,AGCGACTGCATGCTTTGATCGATCCATCTAGCTAATTGTTCGGAGTCACCTAGTGCAG,8060 fluorescence intensity (a.u.)
4,GCGGTGATGACAGACGGGAGAGGGAGGGTTTTTTTTGTTACGGAGTCACCTAGTGCAG,18200 fluorescence intensity (a.u.)
5,ATACTTTTGATAGTCATATTTCATCTTAGCACACAGACCACGGAGTCACCTAGTGCAG,8240 fluorescence intensity (a.u.)
6,CACTCGACCGCCTTTGCTCCGCTTCGCCGGCCGCCCCGCACGGAGTCACCTAGTGCAG,10600 fluorescence intensity (a.u.)
7,GCTATATAGCTTCATTTACAACCTAGTACGTATACACCTCCGGAGTCACCTAGTGCAG,9020 fluorescence intensity (a.u.)
8,TTTTAAATTACCTGTAGTCTGAACTCTTATGTTGACTTTGCGGAGTCACCTAGTGCAG,8200 fluorescence intensity (a.u.)
9,TTTCAACTCACTTCTCTCGTTTTCCTTGTACACGTTTTCCCGGAGTCACCTAGTGCAG,10700 fluorescence intensity (a.u.)
10,GTCGCTTGCGCTTCACCGTCTTGCCATAGGTAGTCACTTCCGGAGTCACCTAGTGCAG,8270 fluorescence intensity (a.u.)
11,GGGAGCCATTTTGTTAACATTCATATCTAGTATTGGGGTTCGGAGTCACCTAGTGCAG,15100 fluorescence intensity (a.u.)
12,TCCACATCATCCGACCAACTCTACCAGCCATTCCACCCGCCGGAGTCACCTAGTGCAG,9160 fluorescence intensity (a.u.)
13,GTAGAGGTGGTAGAAATTGATAGGAAGTTTAGTTGGAGACCGGAGTCACCTAGTGCAG,8620 fluorescence intensity (a.u.)
14,TGCTTGCAGGCAAATCAAAACAATTGCTAGGTCGTTGACCCGGAGTCACCTAGTGCAG,8520 fluorescence intensity (a.u.)
15,TTAGGCCAAGTATGGGGTTGGGGCTATGGAGGAGAAGGGCCGGAGTCACCTAGTGCAG,9790 fluorescence intensity (a.u.)
16,GACCGGTGCACCCAGCCCACCACCTTCTCCCTGCACCCACCGGAGTCACCTAGTGCAG,8840 fluorescence intensity (a.u.)
17,GCCGCCGGGCACCACATTTGCAGCAGCGCCGCCTCCGCCGCGGAGTCACCTAGTGCAG,9970 fluorescence intensity (a.u.)
18,CCTTCGTCGACCCTCCGCCGCCGCCGCCGCCGCCGCCGACCGGAGTCACCTAGTGCAG,8660 fluorescence intensity (a.u.)
19,AATTATGTGAAAGGGGTGGGTGCAAAACTATCACCTTGACCGGAGTCACCTAGTGCAG,9860 fluorescence intensity (a.u.)
20,CCTTCCGACATCCGGTCAAACGTCTGATGTGACACCCAAACGGAGTCACCTAGTGCAG,10000 fluorescence intensity (a.u.)
21,ATCTCTGTGATCGATCTGCAAGCCATGACGGACCCGCTGTCGGAGTCACCTAGTGCAG,8060 fluorescence intensity (a.u.)

row,Sequence,binding signal
1,GTCATATTCTTCAGGGCACTCTATTGTTGGCTATCTTTCTCGGAGTCACCTAGTGCAG,8580 fluorescence intensity (a.u.)
2,CCACGCCACCCTAACCACACCCACACGCACGAAACCTAATCGGAGTCACCTAGTGCAG,12200 fluorescence intensity (a.u.)
3,TTGTTGTACTTGGCAGACTGTGGACTTTTAGGTCATCTTACGGAGTCACCTAGTGCAG,8630 fluorescence intensity (a.u.)
4,GTCTCGCGATTTCCCCTCTAATTGTGCAATTAGTTTTTTACGGAGTCACCTAGTGCAG,9920 fluorescence intensity (a.u.)
5,TTCGGGTATCGGGTGGGCGTACCCATGGGTAAAAAGTCACCGGAGTCACCTAGTGCAG,10100 fluorescence intensity (a.u.)
6,TGGAATTCGCGTTAACCCTAGCTTTTGTTCTAGAAATTTACGGAGTCACCTAGTGCAG,10200 fluorescence intensity (a.u.)
7,ACTCGCGCCGCTCGCCACATCCGACTCCTTCGAATCCTCTCGGAGTCACCTAGTGCAG,10400 fluorescence intensity (a.u.)
8,GAATAGTACTTTACTCGTGACTTATGTTTTTAATTTTTTTCGGAGTCACCTAGTGCAG,9960 fluorescence intensity (a.u.)
9,TATTAATGTCGTTATATTTTACTCATTTTGGTCTGAAATACGGAGTCACCTAGTGCAG,8060 fluorescence intensity (a.u.)
10,TGCTCTTGAAGTCTGTGTTTTTTAGTGTTTCATCCGACTGCGGAGTCACCTAGTGCAG,8340 fluorescence intensity (a.u.)
11,CAAAGGTGTTCGACGCGTGCTTCTCGGCGTCCAGCGTCTCCGGAGTCACCTAGTGCAG,8090 fluorescence intensity (a.u.)
12,GGGGAAGCTTCGTGGCGGGAGGCAGTTGGTGCTGTGGCTCCGGAGTCACCTAGTGCAG,8110 fluorescence intensity (a.u.)
13,TTTAAATGTTTCAGTTGCTATTTTTTTCGTTTCACTATATCGGAGTCACCTAGTGCAG,9000 fluorescence intensity (a.u.)
14,CGTTTCACCGTTCGTCTTATTTAAAATTATTTTATAATTACGGAGTCACCTAGTGCAG,8920 fluorescence intensity (a.u.)
15,TAGCTCTCTCTTGGTGTTCTCTCCTCCATGCAAGCTCTCTCGGAGTCACCTAGTGCAG,8240 fluorescence intensity (a.u.)
16,TCTCTGCAATATGGGGCATGCGACAATTTACTAACTATATCGGAGTCACCTAGTGCAG,8430 fluorescence intensity (a.u.)
17,AGGTAAGGATGCAAGCGGGCTTTTTTTTTCCCGCTTATCCCGGAGTCACCTAGTGCAG,10500 fluorescence intensity (a.u.)
18,CGCGTCGCGCGCCGTTGACGACTTTCCCGCGCCTATAAAACGGAGTCACCTAGTGCAG,8840 fluorescence intensity (a.u.)
19,CATACCCCAATCGTTCTTACACTGTTTAGTTTTGACTACCCGGAGTCACCTAGTGCAG,8740 fluorescence intensity (a.u.)
20,CATCTCCTCCACCTATAAAGCTACCCAGCTGATGCTTCCGCGGAGTCACCTAGTGCAG,8130 fluorescence intensity (a.u.)
21,AGAGAGCACGCGATCGATCGATCCCGCACCCTGTAATCCTCGGAGTCACCTAGTGCAG,8630 fluorescence intensity (a.u.)

# Already shown: entries from further up.
row,Sequence,binding signal
6,CACTCGACCGCCTTTGCTCCGCTTCGCCGGCCGCCCCGCACGGAGTCACCTAGTGCAG,10600 fluorescence intensity (a.u.)
7,GCTATATAGCTTCATTTACAACCTAGTACGTATACACCTCCGGAGTCACCTAGTGCAG,9020 fluorescence intensity (a.u.)
8,TTTTAAATTACCTGTAGTCTGAACTCTTATGTTGACTTTGCGGAGTCACCTAGTGCAG,8200 fluorescence intensity (a.u.)
9,TTTCAACTCACTTCTCTCGTTTTCCTTGTACACGTTTTCCCGGAGTCACCTAGTGCAG,10700 fluorescence intensity (a.u.)
10,GTCGCTTGCGCTTCACCGTCTTGCCATAGGTAGTCACTTCCGGAGTCACCTAGTGCAG,8270 fluorescence intensity (a.u.)
11,GGGAGCCATTTTGTTAACATTCATATCTAGTATTGGGGTTCGGAGTCACCTAGTGCAG,15100 fluorescence intensity (a.u.)
12,TCCACATCATCCGACCAACTCTACCAGCCATTCCACCCGCCGGAGTCACCTAGTGCAG,9160 fluorescence intensity (a.u.)
13,GTAGAGGTGGTAGAAATTGATAGGAAGTTTAGTTGGAGACCGGAGTCACCTAGTGCAG,8620 fluorescence intensity (a.u.)
14,TGCTTGCAGGCAAATCAAAACAATTGCTAGGTCGTTGACCCGGAGTCACCTAGTGCAG,8520 fluorescence intensity (a.u.)
